Data from publication PMC2683825.
Results are given in words; binding and its absence hold for the method and conditions named. In cells and extracts the contact can be indirect. For part of these data: Binding can be weak; no strength is given. Where a sequence is shown, tags or fusion partners need not be part of it.

Tests used:
[1] = biological target: T1, V5-tagged recombinant Ac-FTT-2 (Ancylostoma caninum 14-3-3 protein) (Ancylostoma caninum) (UniProt C3V6I8); experiment: co-IP; reciprocal: anti-V5 resin on lysates of co-transfected HEK293 cells treated with 20% serum; same buffers; Western blot with DAF-16 antiserum and anti-V5/HRP
T1 sequence: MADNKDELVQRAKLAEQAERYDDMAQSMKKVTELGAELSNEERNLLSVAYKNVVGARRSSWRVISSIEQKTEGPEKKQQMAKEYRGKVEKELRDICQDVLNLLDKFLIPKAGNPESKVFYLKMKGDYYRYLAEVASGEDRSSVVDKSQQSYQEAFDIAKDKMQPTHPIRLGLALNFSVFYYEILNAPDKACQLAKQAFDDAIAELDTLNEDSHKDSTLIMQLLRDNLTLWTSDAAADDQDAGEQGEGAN

[2] = biological target: FLAG-tagged A. caninum forkhead transcription factor DAF-16 (wild type) (Ancylostoma caninum) (UniProt B3G3K1); experiment: co-IP; anti-FLAG M2 agarose on lysates of co-transfected HEK293 cells treated with 20% serum; lysis in 50 mM NaCl, 50 mM Tris-HCl pH 7.5, 0.1% NP-40, 5 mM EDTA with phosphatase and protease inhibitors; overnight at 4 C; Western blot for Ac-FTT-2 and with DAF-16 antiserum
[3] = biological target: FLAG-tagged Ac-DAF-16 S107A (Ancylostoma caninum); experiment: as above
[4] = biological target: FLAG-tagged Ac-DAF-16 S107A/S381A (Ancylostoma caninum); experiment: as above
[5] = biological target: FLAG-tagged Ac-DAF-16 S107A/T312A (Ancylostoma caninum); experiment: as above
[6] = biological target: FLAG-tagged Ac-DAF-16 S381A (Ancylostoma caninum); experiment: as above

## FLAG-tagged A. caninum forkhead transcription factor DAF-16 (wild type) (from UniProt B3G3K1)
[1]
  binding: binds

B1: V5-tagged recombinant Ac-FTT-2 (Ancylostoma caninum 14-3-3 protein) (protein, UniProt C3V6I8 1-249)
chain: T1 sequence
[2]
  binding: binds
[3]
  binding: no binding
[4]
  binding: no binding
[5]
  binding: no binding
[6]
  binding: binds
